Experimental data taken from the supplement of paper PMC10849652.
Some of the results follow.

Sequences of proteins named here, by UniProt entry; tags and fusion partners are left off. A change or cut given only in a name is not applied to a line headed by its entry.
UniProt Q9NPB8: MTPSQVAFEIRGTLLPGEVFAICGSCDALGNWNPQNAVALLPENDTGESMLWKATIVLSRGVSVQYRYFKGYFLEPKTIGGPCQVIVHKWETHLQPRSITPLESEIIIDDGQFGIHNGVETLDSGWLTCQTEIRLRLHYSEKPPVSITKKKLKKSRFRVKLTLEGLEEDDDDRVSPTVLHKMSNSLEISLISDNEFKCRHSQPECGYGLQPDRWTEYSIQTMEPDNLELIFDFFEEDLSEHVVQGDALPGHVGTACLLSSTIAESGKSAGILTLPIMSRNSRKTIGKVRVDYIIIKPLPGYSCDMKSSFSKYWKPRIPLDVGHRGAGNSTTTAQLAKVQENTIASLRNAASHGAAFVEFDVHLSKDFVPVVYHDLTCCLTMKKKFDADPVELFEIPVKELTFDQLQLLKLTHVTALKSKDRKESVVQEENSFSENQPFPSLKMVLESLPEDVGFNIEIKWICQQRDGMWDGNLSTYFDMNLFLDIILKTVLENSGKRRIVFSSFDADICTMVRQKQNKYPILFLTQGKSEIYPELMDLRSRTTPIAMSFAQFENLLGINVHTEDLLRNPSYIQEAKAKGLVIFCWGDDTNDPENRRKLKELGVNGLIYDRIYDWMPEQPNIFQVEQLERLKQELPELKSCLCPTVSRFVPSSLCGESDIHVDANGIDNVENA
UniProt Q86UL3: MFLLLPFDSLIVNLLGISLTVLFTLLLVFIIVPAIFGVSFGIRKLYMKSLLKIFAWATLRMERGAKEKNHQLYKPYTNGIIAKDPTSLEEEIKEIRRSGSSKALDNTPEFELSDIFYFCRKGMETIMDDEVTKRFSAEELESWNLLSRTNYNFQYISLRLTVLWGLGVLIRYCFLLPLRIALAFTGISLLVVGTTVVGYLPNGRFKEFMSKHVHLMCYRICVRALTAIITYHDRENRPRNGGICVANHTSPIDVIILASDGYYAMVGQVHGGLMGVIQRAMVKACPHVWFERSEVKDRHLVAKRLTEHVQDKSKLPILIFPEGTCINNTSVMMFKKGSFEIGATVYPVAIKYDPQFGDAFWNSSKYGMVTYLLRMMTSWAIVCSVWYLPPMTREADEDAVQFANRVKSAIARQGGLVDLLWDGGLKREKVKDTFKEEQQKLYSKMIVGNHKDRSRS
UniProt P49840: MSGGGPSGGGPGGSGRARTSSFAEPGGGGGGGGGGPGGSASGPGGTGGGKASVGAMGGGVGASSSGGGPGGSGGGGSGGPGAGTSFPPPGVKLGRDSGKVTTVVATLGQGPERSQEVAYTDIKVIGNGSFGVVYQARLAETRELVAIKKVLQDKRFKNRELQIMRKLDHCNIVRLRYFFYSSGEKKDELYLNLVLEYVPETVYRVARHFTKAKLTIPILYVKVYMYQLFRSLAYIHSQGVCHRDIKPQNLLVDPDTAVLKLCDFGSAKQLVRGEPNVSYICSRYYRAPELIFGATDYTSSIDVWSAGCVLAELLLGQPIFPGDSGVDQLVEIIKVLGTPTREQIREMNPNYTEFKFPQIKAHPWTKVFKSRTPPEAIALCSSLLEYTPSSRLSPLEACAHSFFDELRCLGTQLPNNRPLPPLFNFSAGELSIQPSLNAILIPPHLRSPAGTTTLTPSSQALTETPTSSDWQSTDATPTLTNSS
UniProt O15228: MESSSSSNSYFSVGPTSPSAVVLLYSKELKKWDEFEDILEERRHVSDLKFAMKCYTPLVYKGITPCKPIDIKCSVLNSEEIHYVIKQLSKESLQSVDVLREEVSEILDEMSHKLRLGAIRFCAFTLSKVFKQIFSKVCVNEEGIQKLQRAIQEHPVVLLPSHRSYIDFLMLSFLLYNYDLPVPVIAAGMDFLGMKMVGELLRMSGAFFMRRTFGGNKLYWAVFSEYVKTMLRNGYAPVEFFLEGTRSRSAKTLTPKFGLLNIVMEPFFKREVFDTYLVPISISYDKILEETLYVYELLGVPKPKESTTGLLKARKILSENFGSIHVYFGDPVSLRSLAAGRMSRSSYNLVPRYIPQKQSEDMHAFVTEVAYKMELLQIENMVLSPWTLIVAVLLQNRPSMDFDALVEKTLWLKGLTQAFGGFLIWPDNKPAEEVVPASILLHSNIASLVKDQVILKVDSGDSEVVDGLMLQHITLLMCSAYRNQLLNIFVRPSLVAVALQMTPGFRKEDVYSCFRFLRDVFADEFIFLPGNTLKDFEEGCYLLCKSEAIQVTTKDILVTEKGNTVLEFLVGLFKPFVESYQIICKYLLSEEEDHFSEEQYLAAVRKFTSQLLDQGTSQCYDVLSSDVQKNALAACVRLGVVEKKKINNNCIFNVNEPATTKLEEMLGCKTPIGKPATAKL
UniProt Q9Y4H4: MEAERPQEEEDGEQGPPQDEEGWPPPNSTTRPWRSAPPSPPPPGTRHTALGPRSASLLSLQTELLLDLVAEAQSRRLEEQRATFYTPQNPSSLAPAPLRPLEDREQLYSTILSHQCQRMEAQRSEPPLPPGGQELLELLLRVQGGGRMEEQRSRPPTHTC
UniProt P36915, whole entry, looked up: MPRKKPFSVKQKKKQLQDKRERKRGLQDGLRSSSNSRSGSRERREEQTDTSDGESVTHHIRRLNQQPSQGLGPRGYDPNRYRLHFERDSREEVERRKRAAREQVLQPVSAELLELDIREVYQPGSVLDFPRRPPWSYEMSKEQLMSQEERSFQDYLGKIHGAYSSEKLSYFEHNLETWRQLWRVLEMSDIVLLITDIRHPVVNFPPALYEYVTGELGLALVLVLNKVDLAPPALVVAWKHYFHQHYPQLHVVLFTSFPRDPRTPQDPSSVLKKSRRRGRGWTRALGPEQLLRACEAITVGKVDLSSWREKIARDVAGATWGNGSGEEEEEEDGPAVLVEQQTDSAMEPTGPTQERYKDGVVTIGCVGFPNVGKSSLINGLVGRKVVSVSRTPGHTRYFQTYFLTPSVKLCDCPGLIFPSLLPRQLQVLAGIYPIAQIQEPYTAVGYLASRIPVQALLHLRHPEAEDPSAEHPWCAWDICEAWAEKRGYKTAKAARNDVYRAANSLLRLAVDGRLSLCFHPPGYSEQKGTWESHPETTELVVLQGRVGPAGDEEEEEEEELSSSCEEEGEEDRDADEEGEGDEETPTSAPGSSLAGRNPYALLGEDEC
UniProt P16278: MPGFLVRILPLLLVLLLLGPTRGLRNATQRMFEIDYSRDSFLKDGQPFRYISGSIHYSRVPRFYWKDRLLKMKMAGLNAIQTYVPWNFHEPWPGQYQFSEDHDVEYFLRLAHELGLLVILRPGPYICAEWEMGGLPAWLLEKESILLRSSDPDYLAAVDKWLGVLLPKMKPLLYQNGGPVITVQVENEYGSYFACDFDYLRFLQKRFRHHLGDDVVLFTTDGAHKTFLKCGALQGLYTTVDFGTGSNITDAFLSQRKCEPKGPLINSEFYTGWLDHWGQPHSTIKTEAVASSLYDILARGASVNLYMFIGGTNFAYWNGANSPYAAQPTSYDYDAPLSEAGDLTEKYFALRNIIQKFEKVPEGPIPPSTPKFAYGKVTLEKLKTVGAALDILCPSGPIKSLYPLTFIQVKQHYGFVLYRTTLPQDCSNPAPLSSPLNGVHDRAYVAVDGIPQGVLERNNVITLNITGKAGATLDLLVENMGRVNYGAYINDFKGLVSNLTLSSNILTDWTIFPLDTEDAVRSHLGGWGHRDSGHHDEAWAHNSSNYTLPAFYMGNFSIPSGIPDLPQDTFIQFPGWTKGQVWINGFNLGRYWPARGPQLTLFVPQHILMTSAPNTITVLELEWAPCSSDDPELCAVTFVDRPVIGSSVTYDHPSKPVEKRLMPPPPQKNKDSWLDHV
UniProt Q49A26: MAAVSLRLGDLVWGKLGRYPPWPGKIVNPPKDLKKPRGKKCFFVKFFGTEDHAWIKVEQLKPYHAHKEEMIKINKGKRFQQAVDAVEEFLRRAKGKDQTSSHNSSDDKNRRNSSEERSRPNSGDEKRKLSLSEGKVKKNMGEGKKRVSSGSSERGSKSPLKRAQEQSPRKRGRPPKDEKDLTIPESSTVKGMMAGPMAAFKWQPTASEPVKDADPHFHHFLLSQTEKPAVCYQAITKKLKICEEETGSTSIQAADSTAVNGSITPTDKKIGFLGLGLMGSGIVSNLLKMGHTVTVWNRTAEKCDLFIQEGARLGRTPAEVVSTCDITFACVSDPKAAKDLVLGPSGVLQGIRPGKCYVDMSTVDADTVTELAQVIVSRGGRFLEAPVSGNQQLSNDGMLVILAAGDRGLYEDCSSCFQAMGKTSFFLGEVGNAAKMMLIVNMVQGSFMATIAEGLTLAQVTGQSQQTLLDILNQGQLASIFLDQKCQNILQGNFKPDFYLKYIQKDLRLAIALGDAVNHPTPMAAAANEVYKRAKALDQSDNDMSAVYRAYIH
UniProt P63218: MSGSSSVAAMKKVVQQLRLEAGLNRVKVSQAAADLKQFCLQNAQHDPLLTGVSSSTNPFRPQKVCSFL

Tests used:
Experiment in all cases: log2 fold change, soluble protein after heating vs DMSO (PISA); higher = thermal stabilisation; K562 cells, 10 uM, 30 min; active = over 0.2 and 3.5 SD of the protein, either way, in both replicates (recomputed)
saracatinib = compound: CN1CCN(CCOc2cc(OC3CCOCC3)c3c(Nc4c(Cl)ccc5c4OCO5)ncnc3c2)CC1 [saracatinib]
Outline: (§1)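 K562 cells at 2×10^6 cells/mL were treated for 30 min with 10 μM compound, and aliquots were heated for 3 min over 48°C-58°C before pooling. Extraction used PBS with 0.5% NP-40 at 4°C, and soluble protein was the supernatant after 21,000xg for 90 min, measured by TMTpro 16plex LC-MS/MS with channel sums equalised. Thermal stability values, relative to control samples and from duplicates, are log2 fold changes.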

sotrastaurin = compound: CN1CCN(c2nc(C3=C(c4c[nH]c5ccccc45)C(=O)NC3=O)c3ccccc3n2)CC1 [sotrastaurin]
Outline: as §1

alvocidib = compound: CN1CC[C@H](c2c(O)cc(O)c3c(=O)cc(-c4ccccc4Cl)oc23)[C@H](O)C1 [alvocidib]
Outline: as §1

rucaparib = compound: CNCc1ccc(-c2[nH]c3cc(F)cc4c3c2CCNC4=O)cc1 [rucaparib]
Outline: as §1

[1] = compound: CNc1nc(-c2ccc3c(N)n[nH]c3c2)cc(N2C[C@@H](C(=O)NC3CCCCC3)CC[C@H]2C)n1
Outline: as §1

encorafenib = compound: COC(=O)N[C@@H](C)CNc1nccc(-c2cn(C(C)C)nc2-c2cc(Cl)cc(NS(C)(=O)=O)c2F)n1 [encorafenib]
Outline: as §1

filanesib = compound: CON(C)C(=O)N1N=C(c2cc(F)ccc2F)S[C@@]1(CCCN)c1ccccc1 [filanesib]
Outline: as §1

zotarolimus = compound: CO[C@H]1C[C@@H]2CC[C@@H](C)[C@@](O)(O2)C(=O)C(=O)N2CCCC[C@H]2C(=O)O[C@H]([C@H](C)C[C@@H]2CC[C@H](n3cnnn3)[C@H](OC)C2)CC(=O)[C@H](C)/C=C(\C)[C@@H](O)[C@@H](OC)C(=O)[C@H](C)C[C@H](C)/C=C/C=C/C=C/1C [zotarolimus]
Outline: as §1

alisertib = compound: COc1cc(Nc2ncc3c(n2)-c2ccc(Cl)cc2C(c2c(F)cccc2OC)=NC3)ccc1C(=O)O [alisertib]
Outline: as §1

[2] = compound: COc1cc2nc(-c3cc(F)ccc3O)nc(N[C@@H]3CNC[C@H]3C(C)(C)O)c2cc1OC
Outline: as §1

[3] = compound: COc1cccc2cc(-c3nc([C@H]4CC[C@H](C(=O)O)CC4)n4ncnc(N)c34)[nH]c12
Outline: as §1

lapatinib = compound: CS(=O)(=O)CCNCc1ccc(-c2ccc3ncnc(Nc4ccc(OCc5cccc(F)c5)c(Cl)c4)c3c2)o1 [lapatinib]
Outline: as §1

pictilisib = compound: CS(=O)(=O)N1CCN(Cc2cc3nc(-c4cccc5[nH]ncc45)nc(N4CCOCC4)c3s2)CC1 [pictilisib]
Outline: as §1

Tubastatin A = compound: CN1CCc2c(c3ccccc3n2Cc2ccc(C(=O)NO)cc2)C1 [Tubastatin A]
Outline: as §1

[4] = compound: CNC(=O)C1=CC=CC=C1NC2=NC(=NC=C2Cl)NC3=C(C=C(C=C3)N4CCOCC4)OC
Outline: as §1

defactinib = compound: CNC(=O)c1ccc(Nc2ncc(C(F)(F)F)c(NCc3nccnc3N(C)S(C)(=O)=O)n2)cc1 [defactinib]
Outline: as §1

[5] = compound: COC(=O)[C@H](CCSC)NC(=O)C1=C(C=C(C=C1)NC[C@H](CS)N)C2=CC=CC=C2
Outline: as §1

[6] = compound: COC1=CC=C(C=C1)CN2C=CC3=C2C=C(C=C3)C(=O)NO
Outline: as §1

idasanutlin = compound: COc1cc(C(=O)O)ccc1NC(=O)[C@@H]1N[C@@H](CC(C)(C)C)[C@](C#N)(c2ccc(Cl)cc2F)[C@H]1c1cccc(Cl)c1F [idasanutlin]
Outline: as §1

gefitinib = compound: COc1cc2ncnc(Nc3ccc(F)c(Cl)c3)c2cc1OCCCN1CCOCC1 [gefitinib]
Outline: as §1

Target: GPCPD1 (UniProt Q9NPB8)
- log2 fold change (saracatinib): inactive: -0.053
- log2 fold change (sotrastaurin): inactive: -0.063
- log2 fold change (alvocidib): inactive: -0.301
- log2 fold change (rucaparib): inactive: 0.146
- log2 fold change [1]: inactive: 0.254
- log2 fold change (encorafenib): inactive: 0.164
- log2 fold change (filanesib): inactive: 0.139
- log2 fold change (zotarolimus): inactive: -0.066
- log2 fold change (alisertib): inactive: -0.096
- log2 fold change [2]: inactive: -0.041
- log2 fold change [3]: inactive: -0.101
- log2 fold change (lapatinib): inactive: 0.027
- log2 fold change (pictilisib): inactive: -0.101

Target: GPAT4 (UniProt Q86UL3)
- log2 fold change (saracatinib): inactive: 0.042
- log2 fold change (sotrastaurin): inactive: 0.046
- log2 fold change (Tubastatin A): inactive: -0.039
- log2 fold change [4]: inactive: 0.04
- log2 fold change (defactinib): inactive: -0.017
- log2 fold change (rucaparib): inactive: 0.055
- log2 fold change [1]: inactive: -0.069
- log2 fold change (encorafenib): inactive: -0.021
- log2 fold change [5]: inactive: 0.031
- log2 fold change [6]: inactive: -0.034
- log2 fold change (filanesib): inactive: -0.024
- log2 fold change (zotarolimus): inactive: 0.055
- log2 fold change (idasanutlin): inactive: -0.093
- log2 fold change (alisertib): inactive: 0.01
- log2 fold change [2]: inactive: 0.188
- log2 fold change (gefitinib): inactive: 0.006
- log2 fold change [3]: inactive: -0.046
- log2 fold change (lapatinib): inactive: -0.031
- log2 fold change (pictilisib): inactive: 0.036

Target: GSK3A (UniProt P49840)
- log2 fold change (saracatinib): inactive: -0.007
- log2 fold change (sotrastaurin): active: 0.337
- log2 fold change (Tubastatin A): inactive: -0.007
- log2 fold change [4]: inactive: -0.009
- log2 fold change (defactinib): inactive: 0.18
- log2 fold change (rucaparib): inactive: 0.22
- log2 fold change [1]: inactive: -0.041
- log2 fold change (encorafenib): inactive: 0.005
- log2 fold change [5]: inactive: -0.051
- log2 fold change [6]: inactive: -0.028
- log2 fold change (filanesib): inactive: -0.087
- log2 fold change (zotarolimus): inactive: -0.029
- log2 fold change (idasanutlin): inactive: -0.107
- log2 fold change (alisertib): inactive: 0.051
- log2 fold change [2]: inactive: 0.088
- log2 fold change (gefitinib): inactive: -0.008
- log2 fold change [3]: inactive: 0.045
- log2 fold change (lapatinib): inactive: -0.016
- log2 fold change (pictilisib): inactive: 0.188

Target: GNPAT (UniProt O15228)
- log2 fold change (saracatinib): inactive: 0.01
- log2 fold change (sotrastaurin): inactive: 0.077
- log2 fold change (Tubastatin A): inactive: -0.047
- log2 fold change [4]: inactive: 0.045
- log2 fold change (defactinib): inactive: -0.035
- log2 fold change (rucaparib): inactive: -0.06
- log2 fold change [1]: inactive: -0.041
- log2 fold change (encorafenib): inactive: 0.001
- log2 fold change [5]: inactive: -0.027
- log2 fold change [6]: inactive: 0.008
- log2 fold change (filanesib): inactive: -0.054
- log2 fold change (zotarolimus): inactive: 0.064
- log2 fold change (idasanutlin): inactive: -0.05
- log2 fold change (alisertib): inactive: -0.038
- log2 fold change [2]: inactive: -0.022
- log2 fold change (gefitinib): inactive: 0.03
- log2 fold change [3]: inactive: 0
- log2 fold change (lapatinib): inactive: 0.061
- log2 fold change (pictilisib): inactive: 0.148

Target: GPSM3 (UniProt Q9Y4H4)
- log2 fold change (saracatinib): inactive: -0.134
- log2 fold change (sotrastaurin): inactive: 0.19
- log2 fold change (alvocidib): inactive: -0.509
- log2 fold change (defactinib): inactive: 0.175
- log2 fold change (rucaparib): inactive: -0.004
- log2 fold change [1]: inactive: -0.118
- log2 fold change (encorafenib): inactive: -0.128
- log2 fold change [5]: inactive: -0.278
- log2 fold change (filanesib): inactive: -0.129
- log2 fold change (zotarolimus): inactive: 0.1
- log2 fold change (idasanutlin): inactive: -0.168
- log2 fold change (alisertib): inactive: -0.245
- log2 fold change [2]: inactive: -0.089
- log2 fold change (gefitinib): inactive: 0.002
- log2 fold change [3]: inactive: 0.073
- log2 fold change (lapatinib): inactive: -0.235

Target: GNL1 (UniProt P36915)
- log2 fold change (saracatinib): inactive: 0.013
- log2 fold change (sotrastaurin): inactive: 0.013
- log2 fold change (Tubastatin A): inactive: 0.018
- log2 fold change [4]: inactive: 0.009
- log2 fold change (defactinib): inactive: 0.023
- log2 fold change (rucaparib): inactive: -0.039
- log2 fold change [1]: inactive: 0.016
- log2 fold change (encorafenib): inactive: 0.021
- log2 fold change [5]: inactive: -0.011
- log2 fold change [6]: inactive: 0.047
- log2 fold change (filanesib): inactive: -0.066
- log2 fold change (zotarolimus): inactive: 0.049
- log2 fold change (idasanutlin): inactive: -0.056
- log2 fold change (alisertib): inactive: -0.107
- log2 fold change [2]: inactive: 0.039
- log2 fold change (gefitinib): inactive: 0.031
- log2 fold change [3]: inactive: 0.061
- log2 fold change (lapatinib): inactive: 0.011
- log2 fold change (pictilisib): inactive: 0.04

Target: GLB1 (UniProt P16278)
- log2 fold change (saracatinib): inactive: -0.011
- log2 fold change (sotrastaurin): inactive: 0.059
- log2 fold change (Tubastatin A): inactive: -0.032
- log2 fold change [4]: inactive: 0.034
- log2 fold change (defactinib): inactive: 0.004
- log2 fold change (rucaparib): inactive: 0
- log2 fold change [1]: inactive: 0.002
- log2 fold change (encorafenib): inactive: 0.003
- log2 fold change [5]: inactive: 0.036
- log2 fold change [6]: inactive: 0.002
- log2 fold change (filanesib): inactive: -0.033
- log2 fold change (zotarolimus): inactive: 0.009
- log2 fold change (idasanutlin): inactive: -0.015
- log2 fold change (alisertib): inactive: -0.078
- log2 fold change [2]: inactive: -0.015
- log2 fold change (gefitinib): inactive: 0.031
- log2 fold change [3]: inactive: 0.045
- log2 fold change (lapatinib): inactive: 0.024
- log2 fold change (pictilisib): inactive: 0.006

Target: GLYR1 (UniProt Q49A26)
- log2 fold change (saracatinib): inactive: 0.007
- log2 fold change (sotrastaurin): inactive: 0.028
- log2 fold change (Tubastatin A): inactive: -0.077
- log2 fold change [4]: inactive: 0.021
- log2 fold change (defactinib): inactive: -0.029
- log2 fold change (rucaparib): inactive: 0.211
- log2 fold change [1]: inactive: 0.04
- log2 fold change (encorafenib): inactive: -0.044
- log2 fold change [5]: inactive: -0.033
- log2 fold change [6]: inactive: -0.024
- log2 fold change (filanesib): inactive: 0.125
- log2 fold change (zotarolimus): inactive: -0.04
- log2 fold change (idasanutlin): inactive: 0
- log2 fold change (alisertib): inactive: 0.071
- log2 fold change [2]: inactive: -0.092
- log2 fold change (gefitinib): inactive: 0.113
- log2 fold change [3]: inactive: -0.07
- log2 fold change (lapatinib): inactive: 0.169
- log2 fold change (pictilisib): inactive: -0.228

Target: GNG5 (UniProt P63218)
- log2 fold change (saracatinib): inactive: 0.022
- log2 fold change (sotrastaurin): inactive: 0.033
- log2 fold change (Tubastatin A): inactive: 0.049
- log2 fold change [4]: inactive: 0.028
- log2 fold change (defactinib): inactive: -0.041
- log2 fold change (rucaparib): inactive: -0.002
- log2 fold change [1]: inactive: -0.041
- log2 fold change (encorafenib): inactive: -0.073
- log2 fold change [5]: inactive: -0.008
- log2 fold change [6]: inactive: 0.082
- log2 fold change (filanesib): inactive: 0.086
- log2 fold change (zotarolimus): inactive: -0.016
- log2 fold change (idasanutlin): inactive: 0.065
- log2 fold change (alisertib): inactive: -0.146
- log2 fold change [2]: inactive: -0.022
- log2 fold change (gefitinib): inactive: 0.224
- log2 fold change [3]: inactive: 0.079
- log2 fold change (lapatinib): inactive: -0.006
- log2 fold change (pictilisib): inactive: -0.087
